Data as given in PubChem BioAssay AID1224830 (NIAID, 2016)
Shown is a random part of about 18,000 reagents tested. About 2,900 of them (16%) count as active. 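Calls are made per well; low scores hint the gene aids the LPS response, high scores that it dampens it.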 Repeated entries: four replicate wells of each siRNA pool. Reagent sequences are not shown.

Assay: 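Genes whose knock-down alters the TNF-alpha reporter response to LPS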 (primary screen)
System: human THP-1 monocytic leukaemia cells, TNF dual-luciferase reporter clone, PMA-differentiated to macrophage-like cells
Reagent: siRNA pool against human genes, 50 nM
Duration: LPS for 4 h, given about 3 days after siRNA transfection
Challenge: bacterial LPS (TLR4 ligand), 10 ng/ml
Measured: 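Ratio of firefly to renilla light, scaled to the plate median and expressed as a robust z-score per replicate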
Direction: TNF reporter robust z-score: higher = stronger TNF reporter response to LPS
Active means: 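a well is active when its z-score exceeds 2.8 or falls below -1.5; control wells carry no call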

target | TNF reporter robust z-score | Outcome
DTX3L (GeneID 151636) | 0.42 | inactive
DTX3L (GeneID 151636) | 2.98 | active
DTX3L (GeneID 151636) | -0.31 | inactive
DTX3L (GeneID 151636) | 1.33 | inactive
SYPL2 (GeneID 284612) | -1.21 | inactive
SYPL2 (GeneID 284612) | -0.84 | inactive
SYPL2 (GeneID 284612) | -1.26 | inactive
SYPL2 (GeneID 284612) | -1.38 | inactive
UGT3A1 (GeneID 133688) | 1.53 | inactive
UGT3A1 (GeneID 133688) | 3.86 | active
UGT3A1 (GeneID 133688) | 0.56 | inactive
UGT3A1 (GeneID 133688) | -0.06 | inactive
CAMK4 (GeneID 814) | -0.33 | inactive
CAMK4 (GeneID 814) | 0.33 | inactive
CAMK4 (GeneID 814) | -0.58 | inactive
CAMK4 (GeneID 814) | 2.13 | inactive
GPR50 (GeneID 9248) | -0.06 | inactive
GPR50 (GeneID 9248) | -0.55 | inactive
GPR50 (GeneID 9248) | 0.55 | inactive
GPR50 (GeneID 9248) | 1.39 | inactive
FAM163A (GeneID 148753) | 0.04 | inactive
FAM163A (GeneID 148753) | 1.05 | inactive
FAM163A (GeneID 148753) | 0.4 | inactive
FAM163A (GeneID 148753) | 2.62 | inactive
ZNF625 (GeneID 90589) | 2.72 | inactive
ZNF625 (GeneID 90589) | 3.82 | active
ZNF625 (GeneID 90589) | 2.5 | inactive
ZNF625 (GeneID 90589) | 3.69 | active

Part of the list above, reformatted:
| target | TNF reporter robust z-score | Outcome |
| --- | --- | --- |
| SYPL2 (GeneID 284612) | -1.26 | inactive |
| SYPL2 (GeneID 284612) | -1.38 | inactive |
| UGT3A1 (GeneID 133688) | 1.53 | inactive |

The results go on:
target | TNF reporter robust z-score | Outcome
BMP2K (GeneID 55589) | 0 | inactive
BMP2K (GeneID 55589) | -0.2 | inactive
BMP2K (GeneID 55589) | 3.35 | active
BMP2K (GeneID 55589) | 0.83 | inactive
ASB17 (GeneID 127247) | 3.8 | active
ASB17 (GeneID 127247) | -1.33 | inactive
ASB17 (GeneID 127247) | -0.34 | inactive
ASB17 (GeneID 127247) | -0.28 | inactive
IFT27 (GeneID 11020) | 0.24 | inactive
IFT27 (GeneID 11020) | 2.11 | inactive
IFT27 (GeneID 11020) | 0.66 | inactive
IFT27 (GeneID 11020) | -0.26 | inactive
CCDC92 (GeneID 80212) | 4.85 | active
CCDC92 (GeneID 80212) | 4.37 | active
CCDC92 (GeneID 80212) | 3.75 | active
CCDC92 (GeneID 80212) | 3.53 | active
COX17 (GeneID 10063) | 0.04 | inactive
COX17 (GeneID 10063) | 0.2 | inactive
COX17 (GeneID 10063) | 0.54 | inactive
COX17 (GeneID 10063) | -0.11 | inactive
